PubChem BioAssay AID1259254, NCATS – 2017
Purpose: 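Finding genes that stop cells copying their DNA twice in one cycle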 (primary screen). System: human HCT116 colorectal cancer cells. Knock-down reagent: single siRNA against human genes. Timing: 3 days. Measurement: 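Imaged Hoechst DNA stain sorts each cell into a cycle phase by DNA amount; per plate, G2 fraction set to 0% for non-targeting and 100% for GMNN siRNA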. Scale: G2 robust z-score and G2 cells, % of GMNN control: higher = more G2 cells, more excess DNA replication. Active means: 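An siRNA counts as active if its G2 robust z-score lies at least 5 MADs above the screen median; here such calls match roughly 38% of GMNN control or more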.
Here is one part, drawn at random, of about 59,000 deposited reagents. Of all reagents, about 1,550 (2.6%) got an active call. 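G2 share is only a proxy for re-replication; each gene was hit by three separate siRNAs, and active genes were retested.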 A number with no mark means an inactive call. The numbers tell different reagents against one gene apart. Further read-outs or replicates are left out here. The record does not give: the amount of reagent.

With SARS1 #1, how do the results read?
G2 robust z-score: 0.0738; G2 cells, % of GMNN control: 3.49

With SARS1 #2, what does the deposit list?
G2 robust z-score: -0.391; G2 cells, % of GMNN control: 0.213

For SARS1 #3, what was measured?
G2 robust z-score: -1.09; G2 cells, % of GMNN control: -4.69

How did the screen score CUL7 #1?
G2 robust z-score: -0.141; G2 cells, % of GMNN control: 1.98

What is on record for CUL7 #2?
G2 robust z-score: 1.05; G2 cells, % of GMNN control: 10.3

With CUL7 #3, what was measured?
G2 robust z-score: 0.572; G2 cells, % of GMNN control: 6.99

With HAO1 #1, what was measured?
G2 robust z-score: -0.478; G2 cells, % of GMNN control: -0.395

Which result is listed for HAO1 #2?
G2 robust z-score: -0.552; G2 cells, % of GMNN control: -0.916

Which result is listed for HAO1 #3?
G2 robust z-score: 0.389; G2 cells, % of GMNN control: 5.7

With XAF1 #1, what was measured?
G2 robust z-score: -0.318; G2 cells, % of GMNN control: 0.729

For XAF1 #2, what does the deposit list?
G2 robust z-score: -0.0794; G2 cells, % of GMNN control: 2.41

How did the screen score XAF1 #3?
G2 robust z-score: 0.1; G2 cells, % of GMNN control: 3.67

How did the screen score KLF4 #1?
G2 robust z-score: -0.526; G2 cells, % of GMNN control: -0.734

With KLF4 #2, how do the results read?
G2 robust z-score: 0.95; G2 cells, % of GMNN control: 9.65

Which result is listed for KLF4 #3?
G2 robust z-score: 0.431; G2 cells, % of GMNN control: 6

For STK38L #1, what does the deposit list?
G2 robust z-score: 1.35; G2 cells, % of GMNN control: 12.5

How did the screen score STK38L #2?
G2 robust z-score: 0.382; G2 cells, % of GMNN control: 5.65

Which result is listed for STK38L #3?
G2 robust z-score: -0.955; G2 cells, % of GMNN control: -3.75

How did the screen score TAMALIN #1?
G2 robust z-score: 2.65; G2 cells, % of GMNN control: 21.6

Which result is listed for TAMALIN #2?
G2 robust z-score: 1.62; G2 cells, % of GMNN control: 14.3

What is on record for TAMALIN #3?
G2 robust z-score: -0.146; G2 cells, % of GMNN control: 1.94

How did the screen score MAP3K11 #1?
G2 robust z-score: -0.659; G2 cells, % of GMNN control: -1.67

For MAP3K11 #2, how do the results read?
G2 robust z-score: 1.3; G2 cells, % of GMNN control: 12.1

With MAP3K11 #3, how do the results read?
G2 robust z-score: 0.196; G2 cells, % of GMNN control: 4.34

Sorted by “G2 robust z-score” (descending): 2 of the entries above
CUL7 #2 — G2 robust z-score: 1.05; G2 cells, % of GMNN control: 10.3
CUL7 #3 — G2 robust z-score: 0.572; G2 cells, % of GMNN control: 6.99
